The results in this text go back to paper PMC7407560.

The chains behind the UniProt entries cited, without tags or fusion partners. Residues count along the entry.
UniProt Q08345, residues 19-913: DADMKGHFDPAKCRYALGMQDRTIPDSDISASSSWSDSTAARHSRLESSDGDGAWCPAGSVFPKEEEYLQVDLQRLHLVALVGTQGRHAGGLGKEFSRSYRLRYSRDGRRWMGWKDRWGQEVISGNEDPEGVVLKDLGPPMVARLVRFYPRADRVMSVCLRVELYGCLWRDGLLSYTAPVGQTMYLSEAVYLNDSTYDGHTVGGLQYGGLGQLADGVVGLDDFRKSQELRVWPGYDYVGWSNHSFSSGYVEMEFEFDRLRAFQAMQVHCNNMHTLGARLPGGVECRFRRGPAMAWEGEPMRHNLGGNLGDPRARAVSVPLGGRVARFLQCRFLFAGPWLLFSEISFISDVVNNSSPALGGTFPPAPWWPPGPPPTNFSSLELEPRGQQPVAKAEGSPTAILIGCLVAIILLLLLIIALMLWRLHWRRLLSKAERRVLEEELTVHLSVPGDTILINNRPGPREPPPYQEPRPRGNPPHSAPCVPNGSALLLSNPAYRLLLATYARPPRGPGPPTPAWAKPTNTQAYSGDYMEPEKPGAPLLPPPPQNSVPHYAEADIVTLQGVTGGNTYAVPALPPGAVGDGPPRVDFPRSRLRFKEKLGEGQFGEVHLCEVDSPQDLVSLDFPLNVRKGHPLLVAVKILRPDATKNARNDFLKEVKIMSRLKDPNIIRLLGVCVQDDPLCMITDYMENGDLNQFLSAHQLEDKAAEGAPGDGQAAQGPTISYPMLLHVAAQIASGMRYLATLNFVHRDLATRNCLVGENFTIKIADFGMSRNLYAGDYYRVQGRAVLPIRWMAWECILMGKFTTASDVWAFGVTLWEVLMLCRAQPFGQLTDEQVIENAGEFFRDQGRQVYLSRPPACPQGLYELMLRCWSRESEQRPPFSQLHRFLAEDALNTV
UniProt P97434: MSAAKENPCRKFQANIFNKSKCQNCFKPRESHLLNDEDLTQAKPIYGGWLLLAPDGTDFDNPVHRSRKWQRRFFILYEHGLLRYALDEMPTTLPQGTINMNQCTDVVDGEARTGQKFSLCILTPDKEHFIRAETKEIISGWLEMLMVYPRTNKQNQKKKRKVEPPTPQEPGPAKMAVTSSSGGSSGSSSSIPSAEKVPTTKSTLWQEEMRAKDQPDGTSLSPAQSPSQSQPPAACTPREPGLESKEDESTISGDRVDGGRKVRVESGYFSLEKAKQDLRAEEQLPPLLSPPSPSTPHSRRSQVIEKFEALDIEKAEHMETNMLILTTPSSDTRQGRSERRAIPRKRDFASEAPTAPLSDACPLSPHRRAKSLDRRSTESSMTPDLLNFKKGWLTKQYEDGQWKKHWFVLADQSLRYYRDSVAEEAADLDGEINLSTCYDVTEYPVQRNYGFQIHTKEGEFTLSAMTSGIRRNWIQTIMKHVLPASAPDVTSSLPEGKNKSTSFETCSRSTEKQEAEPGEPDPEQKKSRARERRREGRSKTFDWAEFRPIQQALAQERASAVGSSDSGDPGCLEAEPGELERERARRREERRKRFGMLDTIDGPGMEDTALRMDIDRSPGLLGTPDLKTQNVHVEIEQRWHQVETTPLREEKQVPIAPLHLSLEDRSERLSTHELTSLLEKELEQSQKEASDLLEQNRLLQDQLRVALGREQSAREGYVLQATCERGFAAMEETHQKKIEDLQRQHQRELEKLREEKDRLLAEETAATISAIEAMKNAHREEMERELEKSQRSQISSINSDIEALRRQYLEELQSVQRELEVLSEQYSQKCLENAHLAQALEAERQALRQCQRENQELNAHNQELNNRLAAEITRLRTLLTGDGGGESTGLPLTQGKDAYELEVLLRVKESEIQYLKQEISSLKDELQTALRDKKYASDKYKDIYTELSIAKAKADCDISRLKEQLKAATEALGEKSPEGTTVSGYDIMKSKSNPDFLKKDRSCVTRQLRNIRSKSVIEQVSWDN

For this assay, the target named is DDR1 (b-isoform) stably overexpressed in GD25 cells (GD25 OE) (UniProt Q08345). Put plainly: affinity purification with mass spectrometry; DDR1 immunoprecipitated with a C-terminal anti-DDR1 antibody on DynaBeads from lysates of GD25 WT and GD25 OE cells plated on collagen or fibronectin for 1 or 8 h; TMT-labelled, LC-MS/MS.

Results are given in words; binding and its absence hold for the method and conditions named. In cells and extracts the contact can be indirect. These calls come from enrichment with a bait or labelling near it, and not all partners need be listed.

Turning to “myosin phosphatase Rho-interacting protein (MRIP) (from UniProt P97434 1-1024)”, the binding result was “binds”.
